Reference: paper PMC5124709
Results are given in words; binding and its absence hold for the method and conditions named. Binding seen in cells or lysates may run through a third protein. Some results given as binding are weak or reduced against the parent protein; the word gives no strength. For some assays here: Tags and fused reporters may be left off the sequences shown. One block for each molecule: values may come before it.

Amino acid sequences for entries named in this document (tags omitted). Residues count along the entry.
UniProt P97571: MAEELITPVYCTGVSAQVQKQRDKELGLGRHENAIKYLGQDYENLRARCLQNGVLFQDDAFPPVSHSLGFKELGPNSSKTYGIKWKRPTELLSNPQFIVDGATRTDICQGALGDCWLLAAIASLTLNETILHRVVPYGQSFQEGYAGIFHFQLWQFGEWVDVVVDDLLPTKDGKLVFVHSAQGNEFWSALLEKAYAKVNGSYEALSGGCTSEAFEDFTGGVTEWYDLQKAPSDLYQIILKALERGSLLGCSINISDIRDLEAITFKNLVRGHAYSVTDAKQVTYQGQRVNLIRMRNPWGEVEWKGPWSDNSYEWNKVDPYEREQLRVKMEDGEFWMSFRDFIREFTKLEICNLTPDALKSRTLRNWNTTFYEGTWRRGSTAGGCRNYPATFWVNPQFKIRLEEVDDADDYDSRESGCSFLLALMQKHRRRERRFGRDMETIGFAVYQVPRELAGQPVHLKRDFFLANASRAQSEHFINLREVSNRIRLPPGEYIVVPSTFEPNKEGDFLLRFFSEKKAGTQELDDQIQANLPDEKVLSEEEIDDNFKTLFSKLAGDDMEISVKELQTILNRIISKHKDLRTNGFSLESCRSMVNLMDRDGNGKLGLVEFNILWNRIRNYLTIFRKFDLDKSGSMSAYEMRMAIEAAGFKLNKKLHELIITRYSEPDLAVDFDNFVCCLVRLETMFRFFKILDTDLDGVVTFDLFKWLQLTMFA
UniProt Q07009, residues 20-700: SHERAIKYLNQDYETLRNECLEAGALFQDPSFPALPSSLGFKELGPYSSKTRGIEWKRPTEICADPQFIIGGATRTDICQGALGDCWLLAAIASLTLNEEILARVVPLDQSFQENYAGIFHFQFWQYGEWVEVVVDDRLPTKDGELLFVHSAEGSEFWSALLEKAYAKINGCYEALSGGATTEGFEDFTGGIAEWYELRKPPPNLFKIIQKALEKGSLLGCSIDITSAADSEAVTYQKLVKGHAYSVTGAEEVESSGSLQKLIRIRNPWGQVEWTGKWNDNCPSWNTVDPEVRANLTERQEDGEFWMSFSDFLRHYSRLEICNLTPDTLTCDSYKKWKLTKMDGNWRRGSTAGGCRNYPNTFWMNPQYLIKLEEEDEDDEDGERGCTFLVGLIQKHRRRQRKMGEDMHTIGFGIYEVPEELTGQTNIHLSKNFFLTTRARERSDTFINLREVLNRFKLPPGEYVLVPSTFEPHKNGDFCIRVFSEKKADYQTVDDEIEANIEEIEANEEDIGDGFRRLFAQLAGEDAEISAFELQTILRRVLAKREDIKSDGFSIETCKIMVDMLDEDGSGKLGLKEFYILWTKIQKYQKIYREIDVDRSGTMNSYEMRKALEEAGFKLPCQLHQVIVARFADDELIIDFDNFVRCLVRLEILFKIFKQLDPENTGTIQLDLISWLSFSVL

Experiments:
[1] = biological target: T1, Histone deacetylase 3 (HDAC3), endogenous (rat (endogenous in primary cultured cortical neurons)) (UniProt Q6P6W3); experiment: co-IP; as a1, cells under normal conditions (no preconditioning)
T1 sequence: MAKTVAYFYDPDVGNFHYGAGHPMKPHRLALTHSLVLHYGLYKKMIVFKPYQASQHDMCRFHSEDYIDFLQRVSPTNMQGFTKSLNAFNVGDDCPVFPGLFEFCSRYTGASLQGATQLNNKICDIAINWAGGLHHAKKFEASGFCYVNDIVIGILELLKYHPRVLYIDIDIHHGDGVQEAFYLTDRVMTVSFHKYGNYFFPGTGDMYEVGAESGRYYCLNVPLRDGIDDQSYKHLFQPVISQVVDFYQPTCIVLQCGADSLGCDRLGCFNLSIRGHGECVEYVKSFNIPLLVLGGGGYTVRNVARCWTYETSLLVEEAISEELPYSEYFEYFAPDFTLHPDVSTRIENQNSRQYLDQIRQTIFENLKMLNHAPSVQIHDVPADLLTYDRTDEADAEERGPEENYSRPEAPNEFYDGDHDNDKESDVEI

[2] = biological target: T1, Histone deacetylase 3 (HDAC3), endogenous (rat (endogenous in primary cultured cortical neurons)); experiment: co-IP; endogenous proteins; NP-40 lysate of cells with or without preconditioning (PC); anti-HDAC3, anti-calpain1 or anti-calpain2 overnight at 4°C, Protein A/G magnetic beads; immunoblot; interaction strengthened after PC
[3] = biological target: HA-tagged WT HDAC3 (human) (UniProt O15379); experiment: co-IP; PC12 cells transfected with HA-HDAC3 constructs, PC performed 36 h later; whole cell lysates immunoprecipitated with anti-HA, immunoblotted with anti-calpain1 or anti-calpain2
[4] = biological target: calpain1, endogenous (rat (endogenous in primary cultured cortical neurons and in PC12 cells)) (UniProt P97571); experiment: co-IP; endogenous proteins; NP-40 lysate of cells with or without preconditioning (PC); anti-HDAC3, anti-calpain1 or anti-calpain2 overnight at 4°C, Protein A/G magnetic beads; immunoblot; interaction strengthened after PC
[5] = biological target: calpain2, endogenous (rat (endogenous in primary cultured cortical neurons and in PC12 cells)) (UniProt Q07009); experiment: as above

binding [1]: binds weakly
binding [2]: binds
binding [3]: binds
Molecule: calpain1, endogenous (from UniProt P97571 1-713) (enzyme)

binding [1]: binds weakly
binding [2]: binds
binding [3]: binds
Molecule: calpain2, endogenous (from UniProt Q07009 20-700) (enzyme)

binding [4]: binds
binding [5]: binds
B1: Histone deacetylase 3 (HDAC3), endogenous (protein, UniProt Q6P6W3 1-428)
chain: T1 sequence
